No constants are given. Whether binding was seen depends on the method and setting. In cells and extracts the contact can be indirect. Some binding calls cover weakened binding; strength is not graded here.
T1: LARP3 (a genuine La protein) (human (endogenous in 293T)), P05455
T1 chain: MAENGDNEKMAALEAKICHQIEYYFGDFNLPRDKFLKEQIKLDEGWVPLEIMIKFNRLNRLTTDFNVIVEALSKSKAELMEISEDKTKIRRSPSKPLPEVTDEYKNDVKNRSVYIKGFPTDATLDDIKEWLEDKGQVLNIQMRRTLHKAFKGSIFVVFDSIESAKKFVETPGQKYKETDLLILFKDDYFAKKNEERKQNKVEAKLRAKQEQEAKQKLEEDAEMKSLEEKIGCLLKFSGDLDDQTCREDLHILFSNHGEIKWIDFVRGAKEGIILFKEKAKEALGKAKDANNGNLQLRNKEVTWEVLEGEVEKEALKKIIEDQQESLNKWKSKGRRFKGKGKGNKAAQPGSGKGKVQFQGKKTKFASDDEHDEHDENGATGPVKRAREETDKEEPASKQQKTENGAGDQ

T2: LARP3 (a genuine La protein) (human (endogenous in 293T)) (UniProt P05455)
T2 sequence: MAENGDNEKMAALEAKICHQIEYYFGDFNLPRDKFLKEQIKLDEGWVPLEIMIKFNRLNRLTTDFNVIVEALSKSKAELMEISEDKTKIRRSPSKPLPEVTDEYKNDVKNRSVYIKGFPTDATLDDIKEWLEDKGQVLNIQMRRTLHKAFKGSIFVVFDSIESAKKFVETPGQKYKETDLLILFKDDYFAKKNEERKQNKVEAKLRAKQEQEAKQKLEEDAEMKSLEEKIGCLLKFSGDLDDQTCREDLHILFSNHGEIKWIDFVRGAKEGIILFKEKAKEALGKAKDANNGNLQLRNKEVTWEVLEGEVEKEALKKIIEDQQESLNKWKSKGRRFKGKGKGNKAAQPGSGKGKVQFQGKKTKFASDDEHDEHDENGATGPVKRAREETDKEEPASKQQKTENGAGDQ

T3: LARP7 (human (endogenous in 293T)), Q4G0J3
T3 chain: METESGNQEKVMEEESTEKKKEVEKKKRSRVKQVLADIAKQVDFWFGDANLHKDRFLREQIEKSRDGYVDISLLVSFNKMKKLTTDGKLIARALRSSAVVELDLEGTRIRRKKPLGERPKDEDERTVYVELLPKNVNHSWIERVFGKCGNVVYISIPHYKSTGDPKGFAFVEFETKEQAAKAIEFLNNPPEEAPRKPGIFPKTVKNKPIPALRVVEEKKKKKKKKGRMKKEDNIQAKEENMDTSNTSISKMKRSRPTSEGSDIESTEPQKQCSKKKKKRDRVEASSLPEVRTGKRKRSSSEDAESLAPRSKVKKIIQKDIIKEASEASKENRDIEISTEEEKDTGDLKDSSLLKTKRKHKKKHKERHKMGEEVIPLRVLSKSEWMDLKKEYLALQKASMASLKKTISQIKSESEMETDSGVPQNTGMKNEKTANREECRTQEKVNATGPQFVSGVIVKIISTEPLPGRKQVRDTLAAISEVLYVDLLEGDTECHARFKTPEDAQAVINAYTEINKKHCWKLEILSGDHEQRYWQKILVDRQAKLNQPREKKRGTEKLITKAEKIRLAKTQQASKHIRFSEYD


What was measured:
Test in all cases: co-IP; 10 ug antibody (LARP3, LARP7, MePCE, DKC1 or IgG) on Protein A Sepharose CL-4B beads, incubated with 1 mg 293T cell extract at 4 °C for 1 h; washed with NET-2 buffer (50 mM Tris-HCl pH 7.5, 150 mM NaCl, 0.05% NP-40); Western blot
[1] = biological target: T1, LARP3 (a genuine La protein) (human …); settings: remark: other sources report otherwise
[2] = biological target: T2, LARP3 (a genuine La protein) (human (endogenous in 293T))
[3] = biological target: T3, LARP7 (human (endogenous in 293T)), …; settings: remark: other sources report otherwise

| Binder | binding [2] | also measured |
| --- | --- | --- |
| LARP7, Q4G0J3 1-582 (protein) METESGNQEKVMEEESTEKKKEVEKKKRSRVKQVLADIAKQVDFWFGDANLHKDRFLREQIEKSRDGYVDISLLVSFNKMKKLTTDGKLIARALRSSAVVELDLEGTRIRRKKPLGERPKDEDERTVYVELLPKNVNHSWIERVFGKCGNVVYISIPHYKSTGDPKGFAFVEFETKEQAAKAIEFLNNPPEEAPRKPGIFPKTVKNKPIPALRVVEEKKKKKKKKGRMKKEDNIQAKEENMDTSNTSISKMKRSRPTSEGSDIESTEPQKQCSKKKKKRDRVEASSLPEVRTGKRKRSSSEDAESLAPRSKVKKIIQKDIIKEASEASKENRDIEISTEEEKDTGDLKDSSLLKTKRKHKKKHKERHKMGEEVIPLRVLSKSEWMDLKKEYLALQKASMASLKKTISQIKSESEMETDSGVPQNTGMKNEKTANREECRTQEKVNATGPQFVSGVIVKIISTEPLPGRKQVRDTLAAISEVLYVDLLEGDTECHARFKTPEDAQAVINAYTEINKKHCWKLEILSGDHEQRYWQKILVDRQAKLNQPREKKRGTEKLITKAEKIRLAKTQQASKHIRFSEYD |  | binding [1]: binds |
| methyl phosphate capping enzyme (MePCE) (enzyme, UniProt Q7L2J0 1-689) MIEMAAEKEPFLVPAPPPPLKDESGGGGGPTVPPHQEAASGELRGGTERGPGRCAPSAGSPAAAVGRESPGAAATSSSGPQAQQHRGGGPQAQSHGEARLSDPPGRAAPPDVGEERRGGGGTELGPPAPPRPRNGYQPHRPPGGGGGKRRNSCNVGGGGGGFKHPAFKRRRRVNSDCDSVLPSNFLLGGNIFDPLNLNSLLDEEVSRTLNAETPKSSPLPAKGRDPVEILIPKDITDPLSLNTCTDEGHVVLASPLKTGRKRHRHRGQHHQQQQAAGGSESHPVPPTAPLTPLLHGEGASQQPRHRGQNRDAPQPYELNTAINCRDEVVSPLPSALQGPSGSLSAPPAASVISAPPSSSSRHRKRRRTSSKSEAGARGGGQGSKEKGRGSWGGRHHHHHPLPAAGFKKQQRKFQYGNYCKYYGYRNPSCEDGRLRVLKPEWFRGRDVLDLGCNVGHLTLSIACKWGPSRMVGLDIDSRLIHSARQNIRHYLSEELRLPPQTLEGDPGAEGEEGTTTVRKRSCFPASLTASRGPIAAPQVPLDGADTSVFPNNVVFVTGNYVLDRDDLVEAQTPEYDVVLCLSLTKWVHLNWGDEGLKRMFRRIYRHLRPGGILVLEPQPWSSYGKRKTLTETIYKNYYRIQLKPEQFSSYLTSPDVGFSSYELVATPHNTSKGFQRPVYLFHKARSPSH | binds |  |
| LARP3 (a genuine La protein), P05455 1-408 (protein) MAENGDNEKMAALEAKICHQIEYYFGDFNLPRDKFLKEQIKLDEGWVPLEIMIKFNRLNRLTTDFNVIVEALSKSKAELMEISEDKTKIRRSPSKPLPEVTDEYKNDVKNRSVYIKGFPTDATLDDIKEWLEDKGQVLNIQMRRTLHKAFKGSIFVVFDSIESAKKFVETPGQKYKETDLLILFKDDYFAKKNEERKQNKVEAKLRAKQEQEAKQKLEEDAEMKSLEEKIGCLLKFSGDLDDQTCREDLHILFSNHGEIKWIDFVRGAKEGIILFKEKAKEALGKAKDANNGNLQLRNKEVTWEVLEGEVEKEALKKIIEDQQESLNKWKSKGRRFKGKGKGNKAAQPGSGKGKVQFQGKKTKFASDDEHDEHDENGATGPVKRAREETDKEEPASKQQKTENGAGDQ |  | binding [3]: binds |
| DKC1 (protein, UniProt O60832 1-514) MADAEVIILPKKHKKKKERKSLPEEDVAEIQHAEEFLIKPESKVAKLDTSQWPLLLKNFDKLNVRTTHYTPLACGSNPLKREIGDYIRTGFINLDKPSNPSSHEVVAWIRRILRVEKTGHSGTLDPKVTGCLIVCIERATRLVKSQQSAGKEYVGIVRLHNAIEGGTQLSRALETLTGALFQRPPLIAAVKRQLRVRTIYESKMIEYDPERRLGIFWVSCEAGTYIRTLCVHLGLLLGVGGQMQELRRVRSGVMSEKDHMVTMHDVLDAQWLYDNHKDESYLRRVVYPLEKLLTSHKRLVMKDSAVNAICYGAKIMLPGVLRYEDGIEVNQEIVVITTKGEAICMAIALMTTAVISTCDHGIVAKIKRVIMERDTYPRKWGLGPKASQKKLMIKQGLLDKHGKPTDSTPATWKQEYVDYSESAKKEVVAEVVKAPQVVAEAAKTAKRKRESESESDETPPAAPQLIKKEKKKSKKDKKAKAGLESGAEPGDGDSDTTKKKKKKKKAKEVELVSE | no binding |  |
